Assay results published in the supplement of paper PMC10849652.
The list shows a part of the results.

Protein sequences, listed by entry. Tags and fused reporters are not part of them. Lines headed by an entry give the natural chain unless they say otherwise; changes in a name come on top.
UniProt Q9P2E9: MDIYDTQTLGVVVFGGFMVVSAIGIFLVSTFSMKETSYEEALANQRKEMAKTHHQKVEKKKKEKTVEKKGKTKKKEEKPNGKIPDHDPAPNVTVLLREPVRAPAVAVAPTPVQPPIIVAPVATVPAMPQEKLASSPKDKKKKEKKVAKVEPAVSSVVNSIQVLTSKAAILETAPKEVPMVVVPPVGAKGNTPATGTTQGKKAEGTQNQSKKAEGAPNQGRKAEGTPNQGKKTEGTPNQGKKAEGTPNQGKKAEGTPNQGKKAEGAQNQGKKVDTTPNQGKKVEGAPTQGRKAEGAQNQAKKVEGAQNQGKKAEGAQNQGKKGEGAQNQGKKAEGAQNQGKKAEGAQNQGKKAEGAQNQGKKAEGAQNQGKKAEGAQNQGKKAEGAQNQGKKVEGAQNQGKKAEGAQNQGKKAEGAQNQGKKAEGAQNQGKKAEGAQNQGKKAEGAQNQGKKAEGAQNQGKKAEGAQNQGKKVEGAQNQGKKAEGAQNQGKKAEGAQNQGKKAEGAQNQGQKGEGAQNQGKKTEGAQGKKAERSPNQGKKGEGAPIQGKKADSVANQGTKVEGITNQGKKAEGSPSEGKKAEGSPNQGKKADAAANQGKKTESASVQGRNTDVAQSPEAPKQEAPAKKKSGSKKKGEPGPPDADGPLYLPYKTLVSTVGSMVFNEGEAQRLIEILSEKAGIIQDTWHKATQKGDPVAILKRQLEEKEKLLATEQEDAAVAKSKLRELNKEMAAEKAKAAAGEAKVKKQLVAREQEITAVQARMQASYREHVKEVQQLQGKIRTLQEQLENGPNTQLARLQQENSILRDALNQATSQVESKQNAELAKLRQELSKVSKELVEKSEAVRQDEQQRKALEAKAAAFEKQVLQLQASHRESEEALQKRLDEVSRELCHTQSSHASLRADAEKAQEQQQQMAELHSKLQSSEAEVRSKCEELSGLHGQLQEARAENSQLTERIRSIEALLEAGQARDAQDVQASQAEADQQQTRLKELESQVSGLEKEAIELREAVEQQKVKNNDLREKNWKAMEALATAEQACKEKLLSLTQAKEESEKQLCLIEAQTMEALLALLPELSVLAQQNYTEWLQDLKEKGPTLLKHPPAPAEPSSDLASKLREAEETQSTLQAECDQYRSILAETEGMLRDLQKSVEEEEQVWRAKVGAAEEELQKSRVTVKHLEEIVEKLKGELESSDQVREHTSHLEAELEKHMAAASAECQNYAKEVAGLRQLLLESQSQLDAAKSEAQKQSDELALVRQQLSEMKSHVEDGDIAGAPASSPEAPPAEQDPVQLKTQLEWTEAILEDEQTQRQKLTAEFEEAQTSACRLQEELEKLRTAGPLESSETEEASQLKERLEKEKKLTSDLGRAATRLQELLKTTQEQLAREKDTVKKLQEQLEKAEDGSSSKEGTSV
UniProt Q9Y224: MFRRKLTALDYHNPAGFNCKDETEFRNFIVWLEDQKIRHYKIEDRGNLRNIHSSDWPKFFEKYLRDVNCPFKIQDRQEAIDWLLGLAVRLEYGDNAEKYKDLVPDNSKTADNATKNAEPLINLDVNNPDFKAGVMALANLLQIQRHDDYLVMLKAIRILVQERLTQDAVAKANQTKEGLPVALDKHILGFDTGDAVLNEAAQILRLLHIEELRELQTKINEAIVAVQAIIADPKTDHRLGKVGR
UniProt O95059: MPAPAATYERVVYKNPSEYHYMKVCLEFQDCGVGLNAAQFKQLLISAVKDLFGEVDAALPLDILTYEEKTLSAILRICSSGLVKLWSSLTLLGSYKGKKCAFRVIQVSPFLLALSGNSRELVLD
UniProt O43159: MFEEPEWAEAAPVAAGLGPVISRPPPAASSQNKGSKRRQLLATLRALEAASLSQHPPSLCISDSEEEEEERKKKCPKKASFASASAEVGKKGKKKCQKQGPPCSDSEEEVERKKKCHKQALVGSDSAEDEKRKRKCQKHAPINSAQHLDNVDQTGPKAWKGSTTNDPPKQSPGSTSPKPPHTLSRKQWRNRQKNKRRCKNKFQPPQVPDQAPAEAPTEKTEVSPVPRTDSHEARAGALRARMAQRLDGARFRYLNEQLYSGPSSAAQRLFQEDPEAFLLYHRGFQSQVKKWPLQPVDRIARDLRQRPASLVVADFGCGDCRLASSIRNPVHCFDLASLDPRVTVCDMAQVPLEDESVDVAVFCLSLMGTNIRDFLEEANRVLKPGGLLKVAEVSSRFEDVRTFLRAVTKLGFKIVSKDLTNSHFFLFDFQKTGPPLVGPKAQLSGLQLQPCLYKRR
UniProt Q8N5L8: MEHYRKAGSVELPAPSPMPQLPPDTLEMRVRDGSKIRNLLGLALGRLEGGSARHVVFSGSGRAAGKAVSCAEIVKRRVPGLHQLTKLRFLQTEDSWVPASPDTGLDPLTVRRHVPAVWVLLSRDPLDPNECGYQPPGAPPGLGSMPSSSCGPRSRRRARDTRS
UniProt O75298: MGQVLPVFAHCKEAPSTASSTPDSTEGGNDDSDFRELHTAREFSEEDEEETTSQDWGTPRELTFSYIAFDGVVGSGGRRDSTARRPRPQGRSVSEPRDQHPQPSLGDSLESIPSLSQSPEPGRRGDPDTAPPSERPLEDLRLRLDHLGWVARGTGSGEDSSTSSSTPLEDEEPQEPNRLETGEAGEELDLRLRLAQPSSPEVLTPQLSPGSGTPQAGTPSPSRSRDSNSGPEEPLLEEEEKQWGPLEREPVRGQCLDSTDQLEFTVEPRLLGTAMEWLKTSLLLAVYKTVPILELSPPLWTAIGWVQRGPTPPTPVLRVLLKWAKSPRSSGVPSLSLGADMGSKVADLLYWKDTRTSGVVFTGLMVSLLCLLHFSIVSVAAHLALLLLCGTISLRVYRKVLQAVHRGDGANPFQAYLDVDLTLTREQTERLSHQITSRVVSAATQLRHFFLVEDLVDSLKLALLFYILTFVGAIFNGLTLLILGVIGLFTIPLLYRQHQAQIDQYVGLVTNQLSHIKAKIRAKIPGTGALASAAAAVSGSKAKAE
UniProt Q9UIY3: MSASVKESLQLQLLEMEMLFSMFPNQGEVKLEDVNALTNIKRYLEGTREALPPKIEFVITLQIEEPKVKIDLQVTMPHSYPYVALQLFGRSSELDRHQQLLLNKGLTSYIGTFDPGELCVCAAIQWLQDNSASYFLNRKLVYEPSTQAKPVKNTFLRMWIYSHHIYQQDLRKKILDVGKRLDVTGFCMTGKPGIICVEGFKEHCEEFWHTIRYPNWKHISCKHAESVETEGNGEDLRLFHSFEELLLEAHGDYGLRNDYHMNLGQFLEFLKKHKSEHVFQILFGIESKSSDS
UniProt P78346: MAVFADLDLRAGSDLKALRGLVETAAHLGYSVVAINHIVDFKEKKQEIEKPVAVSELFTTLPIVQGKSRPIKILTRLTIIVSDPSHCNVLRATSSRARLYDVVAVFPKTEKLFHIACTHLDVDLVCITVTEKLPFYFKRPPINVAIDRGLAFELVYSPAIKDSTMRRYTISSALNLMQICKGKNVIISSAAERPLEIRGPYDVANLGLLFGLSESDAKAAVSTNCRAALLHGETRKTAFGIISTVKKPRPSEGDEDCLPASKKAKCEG
UniProt P05386, whole entry, looked up: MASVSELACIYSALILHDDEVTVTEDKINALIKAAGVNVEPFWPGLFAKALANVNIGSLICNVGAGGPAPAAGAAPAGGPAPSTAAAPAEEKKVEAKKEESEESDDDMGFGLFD
UniProt Q9NQC3: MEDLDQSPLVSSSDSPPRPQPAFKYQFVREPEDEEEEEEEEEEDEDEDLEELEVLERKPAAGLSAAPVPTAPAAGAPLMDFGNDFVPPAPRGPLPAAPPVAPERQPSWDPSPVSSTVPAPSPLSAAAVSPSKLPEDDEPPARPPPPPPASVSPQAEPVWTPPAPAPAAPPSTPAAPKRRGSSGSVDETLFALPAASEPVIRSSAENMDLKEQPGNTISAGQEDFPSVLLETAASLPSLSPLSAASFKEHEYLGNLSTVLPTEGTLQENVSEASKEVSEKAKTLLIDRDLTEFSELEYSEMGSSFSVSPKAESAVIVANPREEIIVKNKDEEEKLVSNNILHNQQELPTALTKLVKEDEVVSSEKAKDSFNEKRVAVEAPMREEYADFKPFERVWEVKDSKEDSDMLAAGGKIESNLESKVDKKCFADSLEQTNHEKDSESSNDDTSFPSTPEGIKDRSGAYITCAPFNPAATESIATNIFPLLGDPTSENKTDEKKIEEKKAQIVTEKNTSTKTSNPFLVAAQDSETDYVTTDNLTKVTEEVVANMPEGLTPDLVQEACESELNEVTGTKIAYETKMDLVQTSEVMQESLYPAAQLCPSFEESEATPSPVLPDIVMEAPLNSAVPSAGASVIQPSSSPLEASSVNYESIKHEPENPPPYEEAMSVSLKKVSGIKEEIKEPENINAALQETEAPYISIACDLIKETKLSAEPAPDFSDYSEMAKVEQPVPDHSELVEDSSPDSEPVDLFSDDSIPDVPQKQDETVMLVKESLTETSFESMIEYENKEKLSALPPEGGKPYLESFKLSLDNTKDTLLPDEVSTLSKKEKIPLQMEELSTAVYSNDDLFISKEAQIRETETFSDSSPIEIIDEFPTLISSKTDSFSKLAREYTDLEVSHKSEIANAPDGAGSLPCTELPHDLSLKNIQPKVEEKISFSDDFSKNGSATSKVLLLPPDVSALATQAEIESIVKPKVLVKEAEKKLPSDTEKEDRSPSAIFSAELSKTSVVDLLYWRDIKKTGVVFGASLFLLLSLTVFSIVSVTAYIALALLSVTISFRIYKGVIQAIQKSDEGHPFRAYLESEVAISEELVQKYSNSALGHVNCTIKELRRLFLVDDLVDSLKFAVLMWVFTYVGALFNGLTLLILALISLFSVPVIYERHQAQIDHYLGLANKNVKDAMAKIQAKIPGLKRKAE
UniProt Q9Y3B9: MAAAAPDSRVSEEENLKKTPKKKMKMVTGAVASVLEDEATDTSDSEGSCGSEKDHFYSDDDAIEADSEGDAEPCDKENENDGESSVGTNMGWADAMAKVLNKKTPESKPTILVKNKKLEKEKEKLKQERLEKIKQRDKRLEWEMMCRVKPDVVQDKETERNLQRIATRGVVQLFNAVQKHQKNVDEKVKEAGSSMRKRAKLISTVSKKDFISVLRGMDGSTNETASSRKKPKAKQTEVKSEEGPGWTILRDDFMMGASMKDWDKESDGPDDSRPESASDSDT
UniProt Q5VT52: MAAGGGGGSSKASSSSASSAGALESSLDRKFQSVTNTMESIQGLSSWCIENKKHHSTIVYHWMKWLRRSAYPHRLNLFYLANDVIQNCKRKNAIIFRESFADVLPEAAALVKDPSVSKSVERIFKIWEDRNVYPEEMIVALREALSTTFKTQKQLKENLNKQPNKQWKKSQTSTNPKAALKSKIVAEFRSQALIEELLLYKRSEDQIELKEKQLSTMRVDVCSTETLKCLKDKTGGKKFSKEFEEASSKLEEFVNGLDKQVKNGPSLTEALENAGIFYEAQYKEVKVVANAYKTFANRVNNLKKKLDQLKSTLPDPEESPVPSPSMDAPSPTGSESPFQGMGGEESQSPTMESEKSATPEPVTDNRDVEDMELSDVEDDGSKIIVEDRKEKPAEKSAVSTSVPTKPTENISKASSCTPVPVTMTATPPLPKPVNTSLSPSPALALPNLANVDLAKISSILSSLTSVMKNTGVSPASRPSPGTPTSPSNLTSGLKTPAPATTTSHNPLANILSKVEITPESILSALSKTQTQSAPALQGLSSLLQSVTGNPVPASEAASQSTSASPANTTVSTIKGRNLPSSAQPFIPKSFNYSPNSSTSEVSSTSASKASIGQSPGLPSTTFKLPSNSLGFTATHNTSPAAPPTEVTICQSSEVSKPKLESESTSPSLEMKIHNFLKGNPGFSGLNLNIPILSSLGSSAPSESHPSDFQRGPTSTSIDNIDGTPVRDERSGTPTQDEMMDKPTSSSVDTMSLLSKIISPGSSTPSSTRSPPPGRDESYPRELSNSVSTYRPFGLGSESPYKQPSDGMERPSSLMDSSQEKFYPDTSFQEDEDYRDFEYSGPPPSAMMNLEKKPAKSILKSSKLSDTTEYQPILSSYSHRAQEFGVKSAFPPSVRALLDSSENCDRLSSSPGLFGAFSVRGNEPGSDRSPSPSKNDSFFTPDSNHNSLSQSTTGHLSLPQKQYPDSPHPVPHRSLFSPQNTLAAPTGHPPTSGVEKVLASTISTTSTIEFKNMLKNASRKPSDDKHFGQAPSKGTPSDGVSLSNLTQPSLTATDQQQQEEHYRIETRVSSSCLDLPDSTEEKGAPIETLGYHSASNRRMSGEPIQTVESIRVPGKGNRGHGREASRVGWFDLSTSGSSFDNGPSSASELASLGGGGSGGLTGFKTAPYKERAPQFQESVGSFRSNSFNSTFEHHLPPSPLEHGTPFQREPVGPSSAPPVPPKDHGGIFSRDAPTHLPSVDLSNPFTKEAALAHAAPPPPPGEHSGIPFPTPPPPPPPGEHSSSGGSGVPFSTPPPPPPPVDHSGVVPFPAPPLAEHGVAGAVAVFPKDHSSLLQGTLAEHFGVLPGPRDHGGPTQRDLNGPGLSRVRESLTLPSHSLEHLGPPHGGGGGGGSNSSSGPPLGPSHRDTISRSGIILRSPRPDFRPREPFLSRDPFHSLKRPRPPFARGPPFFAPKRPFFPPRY

Legend:
Assay in all cases: log2 fold change, soluble protein after heating vs DMSO (PISA); higher = thermal stabilisation; K562 lysate, 10 uM; active = over 0.2 and 3.5 SD of the protein, either way, in both replicates (recomputed)
erlotinib = compound: C#Cc1cccc(Nc2ncnc3cc(OCCOC)c(OCCOC)cc23)c1 [erlotinib]
In short: (§1)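 Following dounce homogenisation of K562 pellets in PBS pH 7.4 with 1 mM MgCl2, crude extract at 1 mg/mL protein was incubated for 30 min with 10 μM compound. Aliquots were then heated for 3 min over 48°C-58°C and pooled, NP-40 was added to 0.5% at 4°C, and soluble protein was recovered as the supernatant at 21,000xg for 90 min. Channel-sum-equalised TMTpro 16plex LC-MS/MS quantified this protein. Each value, from duplicates, is a log-two fold change in thermal stability relative to solvent controls.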

[1] = compound: C/C(=N\NC(=O)C1=CC(=CC=C1)S(=O)(=O)N2CCOCC2)/C3=C(C=CC(=C3)Cl)O
In short: as §1

[2] = compound: C1=CC(=CC=C1C2=NC3=C(N2)C=C(C=C3)C(=O)N)OC4=CC=C(C=C4)Cl
In short: as §1

[3] = compound: C1=CC2=C(C=CC(=C2)/C=C\3/C(=O)NC(=NCC4=CC=CS4)S3)N=C1
In short: as §1

[4] = compound: C1=CC2=NC=CN=C2C=C1/C=C/3\C(=O)NC(=O)S3
In short: as §1

[5] = compound: C1=CC=C(C=C1)C2=NC(=C(N2)C3=CC=NC=C3)C4=CC(=C(C=C4)Cl)O
In short: as §1

[6] = compound: C1=CC=C2C(=C1)C3=NNC4=CC=CC(=C43)C2=O
In short: as §1

[7] = compound: C1CCN(C1)C(=O)NC2=CC=CC(=C2)NC3=NC=C(C(=N3)NCCC4=CN=CN4)Br
In short: as §1

[8] = compound: C1CN(CCC1(CC2=CC=C(C=C2)Cl)N)C3=NC=NC4=C3C=CN4
In short: as §1

IRAK-1-4 Inhibitor I = compound: C1COCCN1CCN2C3=CC=CC=C3N=C2NC(=O)C4=CC(=CC=C4)[N+](=O)[O-] [IRAK-1-4 Inhibitor I]
In short: as §1

Measured: log2 fold change

RPS28 (UniProt P62857)
inactive: erlotinib -0.042 | [1] -0.213 | [2] 0.015 | [3] -0.061 | [4] -0.043 | [5] -0.011 | [6] -0.012 | [7] 0.046 | [8] -0.043 | IRAK-1-4 Inhibitor I -0.024

RRBP1 isoform 3 (UniProt Q9P2E9)
inactive: erlotinib -0.072 | [1] -0.056 | [2] 0.009 | [3] -0.116 | [4] -0.166 | [5] 0.047 | [6] 0.006 | [7] -0.014 | [8] 0.064 | IRAK-1-4 Inhibitor I 0.011

RTRAF (UniProt Q9Y224)
inactive: erlotinib 0.012 | [1] 0.095 | [2] 0.006 | [3] -0.002 | [4] 0.031 | [5] -0.001 | [6] -0.027 | [7] 0.022 | [8] 0.017 | IRAK-1-4 Inhibitor I -0.023

RPS11 (UniProt P62280)
inactive: erlotinib -0.016 | [1] -0.036 | [2] 0.001 | [3] 0.001 | [4] -0.027 | [5] 0.011 | [6] 0.004 | [7] -0.024 | [8] -0.036 | IRAK-1-4 Inhibitor I -0.006

RPS27A (UniProt P62979)
inactive: erlotinib 0.031 | [1] -0.317 | [2] 0.035 | [3] -0.059 | [4] -0.023 | [5] 0.011 | [6] -0.068 | [7] -0.006 | [8] -0.019 | IRAK-1-4 Inhibitor I 0.017

RPS9 (UniProt P46781)
inactive: erlotinib -0.034 | [1] 0.022 | [2] -0.03 | [3] -0.054 | [4] -0.016 | [5] -0.011 | [6] 0.011 | [7] 0.025 | [8] -0.018 | IRAK-1-4 Inhibitor I -0.017

RPS18 (UniProt P62269)
inactive: erlotinib -0.021 | [1] -0.088 | [2] -0.007 | [3] -0.006 | [4] -0.004 | [5] -0.012 | [6] -0.007 | [7] 0.005 | [8] 0.004 | IRAK-1-4 Inhibitor I 0.047

RPS3A (UniProt P61247)
inactive: erlotinib -0.051 | [1] 0.034 | [2] -0.022 | [3] -0.016 | [4] -0.004 | [5] -0.007 | [6] 0.044 | [7] 0.026 | [8] -0.038 | IRAK-1-4 Inhibitor I -0.021

RTTN (UniProt Q86VV8)
inactive: erlotinib -0.002 | [1] -0.196 | [2] -0.123 | [3] -0.103 | [4] 0.045 | [5] -0.043 | [6] -0.056 | [7] 0.14 | [8] 0.036 | IRAK-1-4 Inhibitor I 0.098

RPP14 (UniProt O95059)
inactive: erlotinib -0.036 | [1] -0.181 | [2] 0.202 | [3] -0.019 | [4] -0.028 | [5] 0.005 | [6] -0.035 | [7] 0.016 | [8] 0.036 | IRAK-1-4 Inhibitor I -0.038

RRP8 (UniProt O43159)
inactive: erlotinib -0.025 | [1] -0.004 | [2] -0.072 | [3] 0.016 | [4] -0.018 | [5] 0.034 | [6] -0.019 | [7] -0.009 | [8] 0.021 | IRAK-1-4 Inhibitor I 0.015

RPS21 (UniProt P63220)
inactive: erlotinib -0.019 | [1] -0.013 | [2] -0.004 | [3] -0.011 | [4] -0.012 | [5] -0.017 | [6] 0.029 | [7] 0.009 | [8] -0.054 | IRAK-1-4 Inhibitor I -0.017

RRAS2 (UniProt P62070)
inactive: erlotinib -0.024 | [1] 0.033 | [2] 0.061 | [3] 0.002 | [4] 0.007 | [5] -0.033 | [6] -0.014 | [7] 0.024 | [8] -0.061 | IRAK-1-4 Inhibitor I 0.027

Copied from the results shown (7 entries):
RPS11 (UniProt P62280)
inactive: erlotinib -0.016 | [1] -0.036 | [2] 0.001 | [3] 0.001 | [4] -0.027 | [5] 0.011 | [6] 0.004 | [7] -0.024 | [8] -0.036 | IRAK-1-4 Inhibitor I -0.006

RPS27A (UniProt P62979)
inactive: erlotinib 0.031 | [1] -0.317 | [2] 0.035 | [3] -0.059 | [4] -0.023 | [5] 0.011 | [6] -0.068 | [7] -0.006 | [8] -0.019 | IRAK-1-4 Inhibitor I 0.017

RPS9 (UniProt P46781)
inactive: erlotinib -0.034 | [1] 0.022 | [2] -0.03 | [3] -0.054 | [4] -0.016 | [5] -0.011 | [6] 0.011 | [7] 0.025 | [8] -0.018 | IRAK-1-4 Inhibitor I -0.017

RPS18 (UniProt P62269)
inactive: erlotinib -0.021 | [1] -0.088 | [2] -0.007 | [3] -0.006 | [4] -0.004 | [5] -0.012 | [6] -0.007 | [7] 0.005 | [8] 0.004 | IRAK-1-4 Inhibitor I 0.047

RPS3A (UniProt P61247)
inactive: erlotinib -0.051 | [1] 0.034 | [2] -0.022 | [3] -0.016 | [4] -0.004 | [5] -0.007 | [6] 0.044 | [7] 0.026 | [8] -0.038 | IRAK-1-4 Inhibitor I -0.021

RTTN (UniProt Q86VV8)
inactive: erlotinib -0.002 | [1] -0.196 | [2] -0.123 | [3] -0.103 | [4] 0.045 | [5] -0.043 | [6] -0.056 | [7] 0.14 | [8] 0.036 | IRAK-1-4 Inhibitor I 0.098

RPP14 (UniProt O95059)
inactive: erlotinib -0.036 | [1] -0.181 | [2] 0.202 | [3] -0.019 | [4] -0.028 | [5] 0.005 | [6] -0.035 | [7] 0.016 | [8] 0.036 | IRAK-1-4 Inhibitor I -0.038

Following part.

RTF1 (UniProt Q92541)
inactive: erlotinib -0.038 | [1] -0.038 | [2] 0.035 | [3] -0.012 | [4] -0.019 | [5] 0.001 | [6] 0.008 | [7] -0.023 | [8] -0.029 | IRAK-1-4 Inhibitor I -0.047

RPP25L (UniProt Q8N5L8)
inactive: erlotinib 0.021 | [1] -0.051 | [2] 0.017 | [3] -0.023 | [4] 0.019 | [5] 0.063 | [6] -0.01 | [7] 0.082 | [8] 0.011 | IRAK-1-4 Inhibitor I 0.113

RPS16 (UniProt P62249)
inactive: erlotinib -0.039 | [1] -0.186 | [2] -0.033 | [3] -0.012 | [4] -0.024 | [5] -0.034 | [6] 0.029 | [7] 0.016 | [8] -0.018 | IRAK-1-4 Inhibitor I -0.026

RTN2 (UniProt O75298)
inactive: erlotinib -0.08 | [1] 0.025 | [2] -0.129 | [3] -0.026 | [4] 0.026 | [5] -0.047 | [6] 0.035 | [7] -0.008 | [8] 0 | IRAK-1-4 Inhibitor I 0.071

RWDD2A (UniProt Q9UIY3)
inactive: erlotinib -0.19 | [1] 0.032 | [2] 0.073 | [3] 0.164 | [4] -0.042 | [5] -0.053 | [6] -0.112 | [7] -0.06 | [8] -0.019 | IRAK-1-4 Inhibitor I -0.042

RPS23 (UniProt P62266)
inactive: erlotinib -0.002 | [1] -0.066 | [2] -0.011 | [3] -0.058 | [4] -0.048 | [5] -0.001 | [6] 0.01 | [7] 0.01 | [8] 0.007 | IRAK-1-4 Inhibitor I 0.018

RPP30 isoform 2 (UniProt P78346)
inactive: erlotinib -0.008 | [1] -0.025 | [2] 0.046 | [3] -0.031 | [4] -0.023 | [5] -0.013 | [6] -0.057 | [7] 0.014 | [8] 0.029 | IRAK-1-4 Inhibitor I 0.011

RSF1 (UniProt Q96T23)
inactive: erlotinib -0.012 | [1] 0.021 | [2] -0.054 | [3] -0.112 | [4] 0.001 | [5] 0.201 | [6] -0.058 | [7] -0.03 | [8] -0.003 | IRAK-1-4 Inhibitor I -0.046

RPL7L1 (UniProt Q6DKI1)
inactive: erlotinib -0.067 | [1] -0.025 | [2] -0.017 | [3] -0.022 | [4] 0.022 | [5] 0.054 | [6] 0.017 | [7] -0.025 | [8] 0.022 | IRAK-1-4 Inhibitor I -0.015

RPLP1 (UniProt P05386)
inactive: erlotinib 0.006 | [1] 0.029 | [2] -0.008 | [3] 0.009 | [4] -0.023 | [5] 0.004 | [6] 0.034 | [7] 0.013 | [8] 0.014 | IRAK-1-4 Inhibitor I 0.023

RTN4 isoform 2 (UniProt Q9NQC3)
inactive: erlotinib -0.043 | [1] -0.381 | [2] 0.092 | [3] 0.175 | [4] 0.072 | [5] 0.038 | [6] -0.058 | [7] -0.017 | [8] 0.098 | IRAK-1-4 Inhibitor I 0.047

RREB1 isoform 2 (UniProt Q92766)
inactive: erlotinib -0.015 | [1] -0.257 | [2] -0.02 | [3] -0.057 | [4] -0.123 | [5] -0.018 | [6] 0.063 | [7] -0.01 | [8] 0.06 | IRAK-1-4 Inhibitor I 0

RRP15 (UniProt Q9Y3B9)
inactive: erlotinib -0.06 | [1] -0.416 | [2] 0.007 | [3] -0.022 | [4] -0.029 | [5] 0.009 | [6] 0.026 | [7] 0.04 | [8] 0.006 | IRAK-1-4 Inhibitor I -0.038

RPS20 isoform 2 (UniProt P60866)
inactive: erlotinib 0.007 | [1] 0.045 | [2] -0.047 | [3] -0.044 | [4] 0.005 | [5] -0.016 | [6] 0.01 | [7] 0.012 | [8] -0.014 | IRAK-1-4 Inhibitor I -0.034

RPRD2 (UniProt Q5VT52)
inactive: erlotinib -0.066 | [1] 0.01 | [2] 0.026 | [3] -0.016 | [4] 0.022 | [5] 0.017 | [6] 0.028 | [7] 0.004 | [8] 0.005 | IRAK-1-4 Inhibitor I -0.037

RSPRY1 (UniProt Q96DX4)
inactive: erlotinib -0.024 | [1] 0.028 | [2] 0.032 | [3] -0.006 | [4] 0.022 | [5] -0.06 | [6] -0.032 | [7] 0.018 | [8] 0.014 | IRAK-1-4 Inhibitor I 0.021
